Experimental data: article PMC4906169
These are yes or no findings as the source states them, for the method shown. Some entries that bind do so weakly or less than the wild type. Sequences can lack the tags named with a protein.

T1: STELLO1 (STL1), split-ubiquitin fusion in yeast (Arabidopsis thaliana) (UniProt O22943)
T1 sequence: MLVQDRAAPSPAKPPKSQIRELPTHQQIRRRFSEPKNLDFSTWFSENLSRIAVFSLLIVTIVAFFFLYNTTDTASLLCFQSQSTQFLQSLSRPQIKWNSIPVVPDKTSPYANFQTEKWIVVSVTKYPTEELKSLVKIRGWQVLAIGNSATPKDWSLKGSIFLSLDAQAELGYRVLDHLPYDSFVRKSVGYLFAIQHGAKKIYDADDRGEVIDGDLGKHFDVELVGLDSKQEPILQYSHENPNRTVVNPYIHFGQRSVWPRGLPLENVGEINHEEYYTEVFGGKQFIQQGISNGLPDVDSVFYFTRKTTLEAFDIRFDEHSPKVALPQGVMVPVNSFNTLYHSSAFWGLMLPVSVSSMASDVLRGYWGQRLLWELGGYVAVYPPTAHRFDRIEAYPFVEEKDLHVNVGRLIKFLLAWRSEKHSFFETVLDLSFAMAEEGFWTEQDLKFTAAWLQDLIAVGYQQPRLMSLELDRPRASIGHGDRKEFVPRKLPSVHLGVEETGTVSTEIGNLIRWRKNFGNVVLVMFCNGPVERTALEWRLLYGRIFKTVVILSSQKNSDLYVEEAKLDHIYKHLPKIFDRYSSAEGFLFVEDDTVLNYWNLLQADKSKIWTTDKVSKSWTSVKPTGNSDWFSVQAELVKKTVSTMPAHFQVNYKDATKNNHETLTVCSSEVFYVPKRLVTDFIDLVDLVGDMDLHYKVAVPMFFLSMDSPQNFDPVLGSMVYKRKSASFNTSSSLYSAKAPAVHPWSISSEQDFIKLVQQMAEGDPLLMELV

T2: STELLO2 (STL2), split-ubiquitin fusion in yeast (Arabidopsis thaliana) (UniProt Q9SCN0)
T2 sequence: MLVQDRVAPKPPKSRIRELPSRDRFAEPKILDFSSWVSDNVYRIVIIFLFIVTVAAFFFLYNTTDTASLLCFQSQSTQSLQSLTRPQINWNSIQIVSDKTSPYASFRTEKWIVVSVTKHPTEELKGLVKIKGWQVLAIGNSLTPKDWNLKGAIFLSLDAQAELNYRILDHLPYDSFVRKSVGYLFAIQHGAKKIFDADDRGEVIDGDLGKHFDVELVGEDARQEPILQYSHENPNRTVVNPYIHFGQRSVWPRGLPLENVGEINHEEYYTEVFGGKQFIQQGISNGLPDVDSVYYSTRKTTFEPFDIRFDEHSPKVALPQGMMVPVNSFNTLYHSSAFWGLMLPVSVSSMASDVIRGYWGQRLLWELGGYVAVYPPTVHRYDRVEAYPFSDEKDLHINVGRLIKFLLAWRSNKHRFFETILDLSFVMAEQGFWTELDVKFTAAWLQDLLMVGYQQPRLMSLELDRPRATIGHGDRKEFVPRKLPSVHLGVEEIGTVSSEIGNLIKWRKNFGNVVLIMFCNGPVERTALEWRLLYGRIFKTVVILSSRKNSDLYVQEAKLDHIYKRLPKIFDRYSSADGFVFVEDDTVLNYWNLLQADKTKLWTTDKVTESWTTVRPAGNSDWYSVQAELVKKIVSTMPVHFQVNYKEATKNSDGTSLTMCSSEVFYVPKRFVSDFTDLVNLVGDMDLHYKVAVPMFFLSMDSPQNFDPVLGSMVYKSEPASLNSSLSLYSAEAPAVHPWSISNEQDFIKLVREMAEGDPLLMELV

B1: Cellulose synthase CesA8, NubG prey fusion in yeast (protein, UniProt Q8LPK5 1-985)
chain: MMESRSPICNTCGEEIGVKSNGEFFVACHECSFPICKACLEYEFKEGRRICLRCGNPYDENVFDDVETKTSKTQSIVPTQTNNTSQDSGIHARHISTVSTIDSELNDEYGNPIWKNRVESWKDKKDKKSKKKKKDPKATKAEQHEAQIPTQQHMEDTPPNTESGATDVLSVVIPIPRTKITSYRIVIIMRLIILALFFNYRITHPVDSAYGLWLTSVICEIWFAVSWVLDQFPKWSPINRETYIDRLSARFEREGEQSQLAAVDFFVSTVDPLKEPPLITANTVLSILALDYPVDKVSCYVSDDGAAMLSFESLVETADFARKWVPFCKKYSIEPRAPEFYFSLKIDYLRDKVQPSFVKERRAMKRDYEEFKIRMNALVAKAQKTPEEGWTMQDGTSWPGNNTRDHPGMIQVFLGYSGARDIEGNELPRLVYVSREKRPGYQHHKKAGAENALVRVSAVLTNAPFILNLDCDHYVNNSKAVREAMCFLMDPVVGQDVCFVQFPQRFDGIDKSDRYANRNIVFFDVNMRGLDGIQGPVYVGTGTVFRRQALYGYSPPSKPRILPQSSSSSCCCLTKKKQPQDPSEIYKDAKREELDAAIFNLGDLDNYDEYDRSMLISQTSFEKTFGLSTVFIESTLMENGGVPDSVNPSTLIKEAIHVISCGYEEKTEWGKEIGWIYGSITEDILTGFKMHCRGWRSIYCMPLRPAFKGSAPINLSDRLHQVLRWALGSVEIFLSRHCPLWYGCSGGRLKLLQRLAYINTIVYPFTSLPLVAYCTLPAICLLTGKFIIPTLSNLASMLFLGLFISIILTSVLELRWSGVSIEDLWRNEQFWVIGGVSAHLFAVFQGFLKMLAGLDTNFTVTSKTADDLEFGELYIVKWTTLLIPPTSLLIINLVGVVAGFSDALNKGYEAWGPLFGKVFFAFWVILHLYPFLKGLMGRQNRTPTIVILWSILLASVFSLVWVRINPFVSKTDTTSLSLNCLLIDC
B2: STELLO1 (STL1), split-ubiquitin fusion in yeast (protein, UniProt O22943 1-771)
chain: T1 sequence
B3: Cellulose synthase CesA3, NubG prey fusion in yeast (protein, UniProt Q941L0 1-1065)
chain: MESEGETAGKPMKNIVPQTCQICSDNVGKTVDGDRFVACDICSFPVCRPCYEYERKDGNQSCPQCKTRYKRLKGSPAIPGDKDEDGLADEGTVEFNYPQKEKISERMLGWHLTRGKGEEMGEPQYDKEVSHNHLPRLTSRQDTSGEFSAASPERLSVSSTIAGGKRLPYSSDVNQSPNRRIVDPVGLGNVAWKERVDGWKMKQEKNTGPVSTQAASERGGVDIDASTDILADEALLNDEARQPLSRKVSIPSSRINPYRMVIMLRLVILCLFLHYRITNPVPNAFALWLVSVICEIWFALSWILDQFPKWFPVNRETYLDRLALRYDREGEPSQLAAVDIFVSTVDPLKEPPLVTANTVLSILAVDYPVDKVSCYVSDDGAAMLSFESLAETSEFARKWVPFCKKYSIEPRAPEWYFAAKIDYLKDKVQTSFVKDRRAMKREYEEFKIRINALVSKALKCPEEGWVMQDGTPWPGNNTRDHPGMIQVFLGQNGGLDAEGNELPRLVYVSREKRPGFQHHKKAGAMNALVRVSAVLTNGPFILNLDCDHYINNSKALREAMCFLMDPNLGKQVCYVQFPQRFDGIDKNDRYANRNTVFFDINLRGLDGIQGPVYVGTGCVFNRTALYGYEPPIKVKHKKPSLLSKLCGGSRKKNSKAKKESDKKKSGRHTDSTVPVFNLDDIEEGVEGAGFDDEKALLMSQMSLEKRFGQSAVFVASTLMENGGVPPSATPENLLKEAIHVISCGYEDKSDWGMEIGWIYGSVTEDILTGFKMHARGWRSIYCMPKLPAFKGSAPINLSDRLNQVLRWALGSVEILFSRHCPIWYGYNGRLKFLERFAYVNTTIYPITSIPLLMYCTLPAVCLFTNQFIIPQISNIASIWFLSLFLSIFATGILEMRWSGVGIDEWWRNEQFWVIGGVSAHLFAVFQGILKVLAGIDTNFTVTSKASDEDGDFAELYLFKWTTLLIPPTTLLIVNLVGVVAGVSYAINSGYQSWGPLFGKLFFAFWVIVHLYPFLKGLMGRQNRTPTIVVVWSVLLASIFSLLWVRIDPFTSRVTGPDILECGINC
B4: Cellulose synthase CesA4, NubG prey fusion in yeast (protein, UniProt Q84JA6 1-1049)
chain: MEPNTMASFDDEHRHSSFSAKICKVCGDEVKDDDNGQTFVACHVCVYPVCKPCYEYERSNGNKCCPQCNTLYKRHKGSPKIAGDEENNGPDDSDDELNIKYRQDGSSIHQNFAYGSENGDYNSKQQWRPNGRAFSSTGSVLGKDFEAERDGYTDAEWKERVDKWKARQEKRGLVTKGEQTNEDKEDDEEEYLDAEARQPLWRKVPISSSKISPYRIVIVLRLVILVFFFRFRILTPAKDAYPLWLISVICEIWFALSWILDQFPKWFPINRETYLDRLSMRFERDGEKNKLAPVDVFVSTVDPLKEPPIITANTILSILAVDYPVNKVSCYVSDDGASMLLFDTLSETSEFARRWVPFCKKYNVEPRAPEFYFSEKIDYLKDKVQTTFVKDRRAMKREYEEFKVRINALVAKAQKKPEEGWVMQDGTPWPGNNTRDHPGMIQVYLGKEGAFDIDGNELPRLVYVSREKRPGYAHHKKAGAMNAMVRVSAVLTNAPFMLNLDCDHYINNSKAIRESMCFLMDPQLGKKLCYVQFPQRFDGIDLNDRYANRNIVFFDINMRGLDGIQGPVYVGTGCVFNRPALYGYEPPVSEKRKKMTCDCWPSWICCCCGGGNRNHKSDSSKKKSGIKSLFSKLKKKTKKKSDDKTMSSYSRKRSSTEAIFDLEDIEEGLEGYDELEKSSLMSQKNFEKRFGMSPVFIASTLMENGGLPEATNTSSLIKEAIHVISCGYEEKTEWGKEIGWIYGSVTEDILTGFRMHCRGWKSVYCMPKRPAFKGSAPINLSDRLHQVLRWALGSVEIFFSRHCPLWYAWGGKLKILERLAYINTIVYPFTSIPLLAYCTIPAVCLLTGKFIIPTINNFASIWFLALFLSIIATAILELRWSGVSINDLWRNEQFWVIGGVSAHLFAVFQGLLKVLFGVDTNFTVTSKGASDEADEFGDLYLFKWTTLLIPPTTLIILNMVGVVAGVSDAINNGYGSWGPLFGKLFFAFWVIVHLYPFLKGLMGRQNRTPTIVVLWSILLASIFSLVWVRIDPFLPKQTGPLLKQCGVDC

target: T1, STELLO1 (STL1), split-ubiquitin fusion in yeast (Arabidopsis thaliana); assay: two-hybrid; split-ubiquitin membrane yeast two-hybrid (MbYTH); STLs as bait (pTFB1), NubG preys (pADSL-Nx); yeast strain NYM51; growth of at least 50 spotted colonies after 4 days at 28 °C on SD lacking Leu, Trp, His and Ade with 150 mM 3-ammonium-triazole

Row | Binder | binding
1 | B1 | binds
2 | B2 | binds
3 | B3 | binds
4 | B4 | binds

target: T2, STELLO2 (STL2), split-ubiquitin fusion in yeast (Arabidopsis thaliana); assay: as above

Row | Binder | binding
5 | B1 | binds
6 | B2 | binds
7 | B3 | binds
8 | B4 | binds
